* marks the point of attachment. Fmoc = O=C(OCC1c2ccccc2-c2ccccc21)*
Assay: general procedure: Fmoc solid-phase peptide synthesis; 2-Cl-Trt resin; DIC/HOBt
Conditions: whole synthesis
[1] = scale of the general procedure 10 mmol

Substance: Fmoc-GGGG-OH
- crude mass: 7.2 g
- crude purity (method not given) [1]: 95.6%
- crude yield [1]: 96%

Reference: US11643439B2 (SHAANXI MICOT TECHNOLOGY LIMITED COMPANY, priority 2015, dated 2023)
